Binding data for one molecule are collected here from paper PMC10071310.

For this experiment, the target named is GFP-KASH5ΔK (human). The experiment is described as follows: co-IP; GFP-Trap magnetic agarose beads on lysates of HeLaM cells transiently expressing the GFP-tagged bait; endogenous preys detected by immunoblot; 50 mM Tris pH 7.5, 10 mM NaCl, 2.5 mM MgCl2, 1 mM DTT, 0.01% digitonin; 2 h at 4°C. For orientation: Immunoblotting shows a protein as a band on a membrane.

These are yes or no findings as the source states them, for the method shown. In cells and extracts the contact can be indirect. Binding can be weak; no strength is given.

B1: Lissencephaly-1 (LIS1) (protein, UniProt P43034 1-410)
chain: MVLSQRQRDELNRAIADYLRSNGYEEAYSVFKKEAELDVNEELDKKYAGLLEKKWTSVIRLQKKVMELESKLNEAKEEFTSGGPLGQKRDPKEWIPRPPEKYALSGHRSPVTRVIFHPVFSVMVSASEDATIKVWDYETGDFERTLKGHTDSVQDISFDHSGKLLASCSADMTIKLWDFQGFECIRTMHGHDHNVSSVAIMPNGDHIVSASRDKTIKMWEVQTGYCVKTFTGHREWVRMVRPNQDGTLIASCSNDQTVRVWVVATKECKAELREHEHVVECISWAPESSYSSISEATGSETKKSGKPGPFLLSGSRDKTIKMWDVSTGMCLMTLVGHDNWVRGVLFHSGGKFILSCADDKTLRVWDYKNKRCMKTLNAHEHFVTSLDFHKTAPYVVTGSVDQTVKVWECR
For B1, the binding entry was “binds”.
